Assay results taken from PubChem BioAssay (NCATS).
Some of the results follow. Shown are side measurements of this screen, not its main read-out; they come without a call. Compounds called inactive in the main read-out are mostly missing here.

Assay: qHTS for identification of novel therapeutic agents for treatment of microphthalmiaassociated transcription factor (MiT) renal cell carcinoma (RCC) (AID 1963991);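 note: curves scaled with 100% = DMSO viability and 0% = empty wells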
Settings: TFE3-RCC UOK109 viability, CellTiter-Glo, 48 h; measured here: UOK109 Z-AUC; stronger effect = lower value
How it was run: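 UOK109/UOK124/UOK145 (TFE3 fusions, three partners); 500 cells/well; MIPE v4.0, 1912 cpds, 11 conc.; 48 h, 37 C; CellTiter-Glo, 15 min RT; lum. Norm.: DMSO 100%, empty 0%.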

| Structure (SMILES) | z-score |
| --- | --- |
| COc1ccc2c3n(c(=NC(=O)c4cccnc4)nc2c1OC)CCN3 | -0.468 |
| C[C@@H](Oc1ccc2[nH]nc(C=Cc3cnn(CCO)c3)c2c1)c1c(Cl)cncc1Cl | -0.476 |
| CCn1c(-c2nonc2N)nc2cncc(CNC3CCNCC3)c21 | 0.487 |
| CCCCCCOC(=O)N=C(N)c1ccc(NCc2nc3cc(C(=O)N(CCC(=O)OCC)c4ccccn4)ccc3n2C)cc1 | 0.554 |
| O=C(c1ccc(F)c(F)c1Nc1ccc(I)cc1F)N1CC(O)([C@H]2CCCCN2)C1 | -1.24 |
| CNC(=O)c1c(-c2ccc(F)cc2)oc2cc(N(CCO)S(C)(=O)=O)c(C3CC3)cc12 | -0.179 |
| C[C@@H]1CN(Cc2ccc(F)cc2)[C@@H](C)CN1C(=O)c1cc2c(C(=O)C(=O)N(C)C)cn(C)c2cc1Cl | 0.28 |
| C=CC(=O)Nc1cc(NC(=O)c2ccc(C)c(NC(=O)c3ccno3)c2)cc(C(F)(F)F)c1 | 0.0908 |
| CCn1c(-c2nonc2N)nc2c(C#CC(C)(C)O)ncc(OC[C@H]3CCCNC3)c21 | -0.00371 |
| CC(C)(C)NC(=O)[C@H]1CN(Cc2cccnc2)CCN1C[C@@H](O)C[C@@H](Cc1ccccc1)C(=O)N[C@H]1c2ccccc2C[C@H]1O | -0.000663 |
| Cn1c(=O)c(-c2c(Cl)cccc2Cl)cc2cnc(Nc3cccc(C(=O)O)c3)nc21 | 0.154 |
| COCCCN1CCC(NC(=O)c2cc(Cl)c(N)c3c2OCC3)CC1 | 0.261 |
| N#CC(=C1Nc2ccccc2S1)c1ccnc(OCc2ccc(CN3CCOCC3)cc2)n1 | -2.51 |
| CN(C)S(=O)(=O)c1ccc2c(c1)C(=Cc1cc3c([nH]1)CCCC3)C(=O)N2 | 0.331 |
| N#CC(c1ccnc(NCCc2cccnc2)n1)c1nc2ccccc2s1 (stereo not given) | -0.511 |
| C[C@@]1(C(=O)Nc2ccc(F)nc2)CCCN1c1nc(Nc2cc(C3CC3)[nH]n2)c2cccn2n1 | -0.107 |
| COc1cc(C(=O)NS(=O)(=O)c2ccccc2C)ccc1Cc1cn(C)c2ccc(NC(=O)OC3CCCC3)cc12 | 0.136 |
| CCC(=C(c1ccccc1)c1ccc(OCCN(C)C)cc1)c1ccccc1 | 0.688 |
| COc1cc2nccc(Oc3ccc(NC(=O)NC4CC4)c(Cl)c3)c2cc1C(N)=O | -0.768 |
| CN(C)CC=CC(=O)Nc1cc2c(Nc3ccc(F)c(Cl)c3)ncnc2cc1O[C@H]1CCOC1 | -3.12 |

| Structure (SMILES) | z-score |
| --- | --- |
| Nc1ncn([C@@H]2O[C@H](CO)[C@@H](O)[C@@H]2O)c(=O)n1 | -0.184 |
| C#C[C@]1(O)CC[C@@H]2[C@@H]3CCc4cc(O)ccc4[C@H]3CC[C@@]21C | 0.2 |
| CCCS(=O)(=O)Nc1ccc(F)c(C(=O)c2c[nH]c3ncc(Cl)cc23)c1F | -0.119 |
| CN[C@H]1[C@@H](O)[C@@H]2O[C@@H]3O[C@H](C)CC(=O)[C@]3(O)O[C@@H]2[C@@H](NC)[C@H]1O | -1.58 |
| C[C@H](NC(=O)C(C#N)=Cc1cccc(Br)n1)c1ccccc1 | 0.0279 |
| Cc1cccc2c1CC[C@H](CN1CCC(c3c(Cl)cccc3Cl)CC1)C[C@@H]2O | 0.405 |
| C[C@H](NCc1ccc2c(c1)nc(NC(=O)c1ccc(-c3cn[nH]c3)s1)n2CCc1ccccc1)C(C)(C)C | -0.51 |
| C=C1C(=O)O[C@H]2[C@@H]1CCC(C)=CCC[C@@]1(C)O[C@@H]21 | 0.315 |
| COc1cc(C=CC(=O)CC(=O)C=Cc2ccc(O)c(OC)c2)ccc1O | -0.0278 |
| CNS(=O)(=O)CCc1ccc2[nH]cc(C3CCN(C)CC3)c2c1 | -0.339 |
| O=C(O)C[C@H](O)C[C@H](O)C=Cc1c(C2CC2)nc2ccccc2c1-c1ccc(F)cc1 | 0.158 |
| C[C@]1(CO)CN(c2cc(C(=O)Nc3ccc4c(c3)-c3c(c(C(N)=O)nn3-c3ccc(F)cc3)CC4)c(Cl)cn2)C[C@@]1(C)CO | -0.547 |
| CCCCCN=C(N)NN=Cc1c[nH]c2ccc(OC)cc12 | -0.385 |
| CC1=C(CO)C(=O)O[C@@H]([C@@H](C)[C@H]2CC[C@H]3[C@@H]4C[C@H]5O[C@]56[C@@H](O)C=CC(=O)[C@]6(C)[C@@H]4CC[C@]23C)C1 | -1.53 |
| Cc1cccc(-c2nn(C(=S)Nc3ccccc3)cc2-c2ccnc3ccccc23)n1 | 0.504 |
| Clc1ccc2ncc(-c3cccc(NC4CNC4)n3)n2c1 | 0.354 |
| CCCc1nn(C)c2c(=O)[nH]c(-c3cc(S(=O)(=O)N4CCN(C)CC4)ccc3OCC)nc12 | 0.299 |
| COc1ccccc1[C@H](c1cccc2ccccc12)[C@@](C)(C#N)C(=O)N1CCC(c2cccc(C(F)(F)F)c2)CC1 | 0.101 |
| C=Cc1c(C)c2cc3nc(cc4[nH]c(cc5nc(cc1[nH]2)C(C)=C5CCC(=O)O)c(CCC(=O)OC)c4C)[C@@]1(C)C3=CC=C(C(=O)OC)[C@H]1C(=O)OC | -1.42 |

Same assay, conditions: TFE3-RCC viability, CellTiter-Glo, 48 h; measured here: UOK124 Z-AUC; stronger effect = lower value

| Structure (SMILES) | z-score |
| --- | --- |
| COc1ccc2c3n(c(=NC(=O)c4cccnc4)nc2c1OC)CCN3 | 1.28 |
| C[C@@H](Oc1ccc2[nH]nc(C=Cc3cnn(CCO)c3)c2c1)c1c(Cl)cncc1Cl | 0.0041 |
| CCn1c(-c2nonc2N)nc2cncc(CNC3CCNCC3)c21 | 0.497 |
| CCCCCCOC(=O)N=C(N)c1ccc(NCc2nc3cc(C(=O)N(CCC(=O)OCC)c4ccccn4)ccc3n2C)cc1 | 0.378 |
| O=C(c1ccc(F)c(F)c1Nc1ccc(I)cc1F)N1CC(O)([C@H]2CCCCN2)C1 | -1.05 |
| CNC(=O)c1c(-c2ccc(F)cc2)oc2cc(N(CCO)S(C)(=O)=O)c(C3CC3)cc12 | -1.41 |
| C[C@@H]1CN(Cc2ccc(F)cc2)[C@@H](C)CN1C(=O)c1cc2c(C(=O)C(=O)N(C)C)cn(C)c2cc1Cl | 1.34 |
| C=CC(=O)Nc1cc(NC(=O)c2ccc(C)c(NC(=O)c3ccno3)c2)cc(C(F)(F)F)c1 | 0.281 |
| CCn1c(-c2nonc2N)nc2c(C#CC(C)(C)O)ncc(OC[C@H]3CCCNC3)c21 | -2.79 |
| CC(C)(C)NC(=O)[C@H]1CN(Cc2cccnc2)CCN1C[C@@H](O)C[C@@H](Cc1ccccc1)C(=O)N[C@H]1c2ccccc2C[C@H]1O | 0.421 |
| Cn1c(=O)c(-c2c(Cl)cccc2Cl)cc2cnc(Nc3cccc(C(=O)O)c3)nc21 | -0.216 |
| COCCCN1CCC(NC(=O)c2cc(Cl)c(N)c3c2OCC3)CC1 | 0.479 |
| N#CC(=C1Nc2ccccc2S1)c1ccnc(OCc2ccc(CN3CCOCC3)cc2)n1 | 0.377 |
| CN(C)S(=O)(=O)c1ccc2c(c1)C(=Cc1cc3c([nH]1)CCCC3)C(=O)N2 | 0.387 |
| N#CC(c1ccnc(NCCc2cccnc2)n1)c1nc2ccccc2s1 (stereo not given) | -0.237 |
| C[C@@]1(C(=O)Nc2ccc(F)nc2)CCCN1c1nc(Nc2cc(C3CC3)[nH]n2)c2cccn2n1 | -1.34 |
| COc1cc(C(=O)NS(=O)(=O)c2ccccc2C)ccc1Cc1cn(C)c2ccc(NC(=O)OC3CCCC3)cc12 | -1.55 |
| CCC(=C(c1ccccc1)c1ccc(OCCN(C)C)cc1)c1ccccc1 | -0.516 |
| COc1cc2nccc(Oc3ccc(NC(=O)NC4CC4)c(Cl)c3)c2cc1C(N)=O | -0.723 |
| CN(C)CC=CC(=O)Nc1cc2c(Nc3ccc(F)c(Cl)c3)ncnc2cc1O[C@H]1CCOC1 | -1.69 |

| Structure (SMILES) | z-score |
| --- | --- |
| Nc1ncn([C@@H]2O[C@H](CO)[C@@H](O)[C@@H]2O)c(=O)n1 | -0.197 |
| C#C[C@]1(O)CC[C@@H]2[C@@H]3CCc4cc(O)ccc4[C@H]3CC[C@@]21C | 0.138 |
| CCCS(=O)(=O)Nc1ccc(F)c(C(=O)c2c[nH]c3ncc(Cl)cc23)c1F | 0.492 |
| CN[C@H]1[C@@H](O)[C@@H]2O[C@@H]3O[C@H](C)CC(=O)[C@]3(O)O[C@@H]2[C@@H](NC)[C@H]1O | -0.0855 |
| C[C@H](NC(=O)C(C#N)=Cc1cccc(Br)n1)c1ccccc1 | -1.35 |
| Cc1cccc2c1CC[C@H](CN1CCC(c3c(Cl)cccc3Cl)CC1)C[C@@H]2O | -0.0606 |
| C[C@H](NCc1ccc2c(c1)nc(NC(=O)c1ccc(-c3cn[nH]c3)s1)n2CCc1ccccc1)C(C)(C)C | -3.12 |
| C=C1C(=O)O[C@H]2[C@@H]1CCC(C)=CCC[C@@]1(C)O[C@@H]21 | -0.496 |
| COc1cc(C=CC(=O)CC(=O)C=Cc2ccc(O)c(OC)c2)ccc1O | -0.0234 |
| CNS(=O)(=O)CCc1ccc2[nH]cc(C3CCN(C)CC3)c2c1 | 0.354 |
| O=C(O)C[C@H](O)C[C@H](O)C=Cc1c(C2CC2)nc2ccccc2c1-c1ccc(F)cc1 | -0.627 |
| C[C@]1(CO)CN(c2cc(C(=O)Nc3ccc4c(c3)-c3c(c(C(N)=O)nn3-c3ccc(F)cc3)CC4)c(Cl)cn2)C[C@@]1(C)CO | 0.302 |
| CCCCCN=C(N)NN=Cc1c[nH]c2ccc(OC)cc12 | -0.474 |
| CC1=C(CO)C(=O)O[C@@H]([C@@H](C)[C@H]2CC[C@H]3[C@@H]4C[C@H]5O[C@]56[C@@H](O)C=CC(=O)[C@]6(C)[C@@H]4CC[C@]23C)C1 | -0.534 |
| Cc1cccc(-c2nn(C(=S)Nc3ccccc3)cc2-c2ccnc3ccccc23)n1 | -0.622 |
| Clc1ccc2ncc(-c3cccc(NC4CNC4)n3)n2c1 | -0.281 |
| CCCc1nn(C)c2c(=O)[nH]c(-c3cc(S(=O)(=O)N4CCN(C)CC4)ccc3OCC)nc12 | -0.401 |
| COc1ccccc1[C@H](c1cccc2ccccc12)[C@@](C)(C#N)C(=O)N1CCC(c2cccc(C(F)(F)F)c2)CC1 | -0.174 |
| C=Cc1c(C)c2cc3nc(cc4[nH]c(cc5nc(cc1[nH]2)C(C)=C5CCC(=O)O)c(CCC(=O)OC)c4C)[C@@]1(C)C3=CC=C(C(=O)OC)[C@H]1C(=O)OC | -0.687 |
